At least one read-out could not be matched to a standard name with certainty.
Columns and labels:
Reh-PRPS1-S103T cells = assay: 6-MP susceptibility after CRISPR lentivirus targeting ATIC / GART; format: cell-based, human; settings: Reh-S103T CRISPR cell lines compared with control cell line Reh-LV-CRISPR
Reh-PRPS1-A190T cells = assay: as above; format: cell-based, human; settings: Reh-A190T CRISPR cell lines compared with control cell line Reh-LV-CRISPR

In the case of “CRISPR-GART: CRISPR guide sequence GCAGCCCGAGTACTTATAAT (SEQ ID NO: 39) for GART in CRISPR lentiviral vector”, the “IC50 values of 6-MP” value (Reh-PRPS1-S103T cells) is reported as “significantly decreased” and the “IC50 values of 6-MP” value (Reh-PRPS1-A190T cells) is reported as “significantly decreased”.

For “CRISPR-ATIC: CRISPR guide sequence TGAATCTGGTCGCTTCCGGA (SEQ ID NO: 40) for ATIC in CRISPR lentiviral vector”, the “IC50 values of 6-MP” value (Reh-PRPS1-S103T cells) was “significantly decreased” and the “IC50 values of 6-MP” value (Reh-PRPS1-A190T cells) was “significantly decreased”.

From patent publication US11021753B2, “Mutant genes related to drug resistance and relapse of acute lymphoblastic leukaemia and a use thereof” (SHANGHAI CHILDREN'S MEDICAL CENTER, SHANGHAI JIAO TONG …, priority 2015, dated 2021)
